# Laboratory results reported in the supplement of paper PMC12067093, “Discovery and optimisation of a covalent ligand for TRIM25 and its application to targeted protein ubiquitination” (Chemical Science, 2025).
# The chains behind the UniProt entries cited, without tags or fusion partners. Where a name states a change or a piece, a line headed by the entry shows the natural chain unless it says otherwise.
# UniProt Q14839: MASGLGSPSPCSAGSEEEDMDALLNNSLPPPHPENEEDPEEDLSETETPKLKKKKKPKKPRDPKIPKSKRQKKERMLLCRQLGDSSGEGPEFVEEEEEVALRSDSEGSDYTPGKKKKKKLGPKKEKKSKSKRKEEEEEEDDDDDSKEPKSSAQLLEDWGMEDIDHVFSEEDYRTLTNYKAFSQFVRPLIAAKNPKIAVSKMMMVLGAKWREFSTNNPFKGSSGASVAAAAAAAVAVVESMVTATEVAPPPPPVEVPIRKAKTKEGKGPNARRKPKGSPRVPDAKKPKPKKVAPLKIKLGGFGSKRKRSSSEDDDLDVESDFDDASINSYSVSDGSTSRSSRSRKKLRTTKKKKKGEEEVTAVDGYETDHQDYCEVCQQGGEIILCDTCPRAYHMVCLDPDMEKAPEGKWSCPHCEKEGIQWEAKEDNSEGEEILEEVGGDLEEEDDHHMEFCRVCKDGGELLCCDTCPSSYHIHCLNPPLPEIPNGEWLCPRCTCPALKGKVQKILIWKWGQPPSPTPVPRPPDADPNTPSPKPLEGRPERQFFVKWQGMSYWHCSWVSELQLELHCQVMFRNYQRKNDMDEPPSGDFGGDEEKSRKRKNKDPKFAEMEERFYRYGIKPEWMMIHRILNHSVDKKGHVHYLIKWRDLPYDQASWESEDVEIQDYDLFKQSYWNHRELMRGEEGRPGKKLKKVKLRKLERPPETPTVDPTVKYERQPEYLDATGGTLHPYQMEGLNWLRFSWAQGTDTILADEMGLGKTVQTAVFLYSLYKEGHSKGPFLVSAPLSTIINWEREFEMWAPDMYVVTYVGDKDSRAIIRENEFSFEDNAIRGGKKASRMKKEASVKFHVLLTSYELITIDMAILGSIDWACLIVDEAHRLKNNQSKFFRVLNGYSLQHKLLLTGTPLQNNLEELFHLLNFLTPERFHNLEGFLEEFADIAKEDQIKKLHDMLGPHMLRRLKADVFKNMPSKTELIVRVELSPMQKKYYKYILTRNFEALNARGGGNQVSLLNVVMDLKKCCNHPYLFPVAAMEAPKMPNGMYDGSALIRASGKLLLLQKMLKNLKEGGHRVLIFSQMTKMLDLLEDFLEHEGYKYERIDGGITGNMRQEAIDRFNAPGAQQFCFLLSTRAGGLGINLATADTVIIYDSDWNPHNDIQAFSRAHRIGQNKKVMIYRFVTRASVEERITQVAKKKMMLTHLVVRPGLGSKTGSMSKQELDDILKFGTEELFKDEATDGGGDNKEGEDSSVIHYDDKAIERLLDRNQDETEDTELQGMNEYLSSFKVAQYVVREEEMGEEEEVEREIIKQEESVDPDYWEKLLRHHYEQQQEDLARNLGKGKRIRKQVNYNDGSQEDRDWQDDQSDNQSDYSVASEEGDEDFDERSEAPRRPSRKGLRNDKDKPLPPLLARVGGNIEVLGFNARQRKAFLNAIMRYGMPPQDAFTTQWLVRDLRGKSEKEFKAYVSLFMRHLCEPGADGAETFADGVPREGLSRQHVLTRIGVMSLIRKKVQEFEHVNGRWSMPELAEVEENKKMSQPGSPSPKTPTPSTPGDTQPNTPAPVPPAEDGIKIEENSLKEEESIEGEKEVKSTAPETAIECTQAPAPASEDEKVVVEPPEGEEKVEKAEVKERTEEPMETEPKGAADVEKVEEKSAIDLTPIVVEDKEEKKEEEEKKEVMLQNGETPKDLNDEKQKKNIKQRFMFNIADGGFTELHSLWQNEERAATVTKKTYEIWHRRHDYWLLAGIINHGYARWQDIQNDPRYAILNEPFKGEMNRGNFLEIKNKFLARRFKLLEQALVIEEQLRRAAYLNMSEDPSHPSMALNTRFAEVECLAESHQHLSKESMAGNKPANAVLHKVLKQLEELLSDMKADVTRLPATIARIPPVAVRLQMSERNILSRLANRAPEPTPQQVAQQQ
# UniProt O76071: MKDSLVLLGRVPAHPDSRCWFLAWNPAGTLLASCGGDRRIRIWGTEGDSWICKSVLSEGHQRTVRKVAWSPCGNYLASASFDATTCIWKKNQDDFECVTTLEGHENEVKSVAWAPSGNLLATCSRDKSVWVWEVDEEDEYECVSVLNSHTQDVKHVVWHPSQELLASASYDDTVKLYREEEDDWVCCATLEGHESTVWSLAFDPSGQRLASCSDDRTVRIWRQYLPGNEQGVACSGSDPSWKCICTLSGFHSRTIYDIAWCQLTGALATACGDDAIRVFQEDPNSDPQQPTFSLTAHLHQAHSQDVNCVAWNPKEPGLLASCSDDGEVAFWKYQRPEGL
# UniProt Q14008: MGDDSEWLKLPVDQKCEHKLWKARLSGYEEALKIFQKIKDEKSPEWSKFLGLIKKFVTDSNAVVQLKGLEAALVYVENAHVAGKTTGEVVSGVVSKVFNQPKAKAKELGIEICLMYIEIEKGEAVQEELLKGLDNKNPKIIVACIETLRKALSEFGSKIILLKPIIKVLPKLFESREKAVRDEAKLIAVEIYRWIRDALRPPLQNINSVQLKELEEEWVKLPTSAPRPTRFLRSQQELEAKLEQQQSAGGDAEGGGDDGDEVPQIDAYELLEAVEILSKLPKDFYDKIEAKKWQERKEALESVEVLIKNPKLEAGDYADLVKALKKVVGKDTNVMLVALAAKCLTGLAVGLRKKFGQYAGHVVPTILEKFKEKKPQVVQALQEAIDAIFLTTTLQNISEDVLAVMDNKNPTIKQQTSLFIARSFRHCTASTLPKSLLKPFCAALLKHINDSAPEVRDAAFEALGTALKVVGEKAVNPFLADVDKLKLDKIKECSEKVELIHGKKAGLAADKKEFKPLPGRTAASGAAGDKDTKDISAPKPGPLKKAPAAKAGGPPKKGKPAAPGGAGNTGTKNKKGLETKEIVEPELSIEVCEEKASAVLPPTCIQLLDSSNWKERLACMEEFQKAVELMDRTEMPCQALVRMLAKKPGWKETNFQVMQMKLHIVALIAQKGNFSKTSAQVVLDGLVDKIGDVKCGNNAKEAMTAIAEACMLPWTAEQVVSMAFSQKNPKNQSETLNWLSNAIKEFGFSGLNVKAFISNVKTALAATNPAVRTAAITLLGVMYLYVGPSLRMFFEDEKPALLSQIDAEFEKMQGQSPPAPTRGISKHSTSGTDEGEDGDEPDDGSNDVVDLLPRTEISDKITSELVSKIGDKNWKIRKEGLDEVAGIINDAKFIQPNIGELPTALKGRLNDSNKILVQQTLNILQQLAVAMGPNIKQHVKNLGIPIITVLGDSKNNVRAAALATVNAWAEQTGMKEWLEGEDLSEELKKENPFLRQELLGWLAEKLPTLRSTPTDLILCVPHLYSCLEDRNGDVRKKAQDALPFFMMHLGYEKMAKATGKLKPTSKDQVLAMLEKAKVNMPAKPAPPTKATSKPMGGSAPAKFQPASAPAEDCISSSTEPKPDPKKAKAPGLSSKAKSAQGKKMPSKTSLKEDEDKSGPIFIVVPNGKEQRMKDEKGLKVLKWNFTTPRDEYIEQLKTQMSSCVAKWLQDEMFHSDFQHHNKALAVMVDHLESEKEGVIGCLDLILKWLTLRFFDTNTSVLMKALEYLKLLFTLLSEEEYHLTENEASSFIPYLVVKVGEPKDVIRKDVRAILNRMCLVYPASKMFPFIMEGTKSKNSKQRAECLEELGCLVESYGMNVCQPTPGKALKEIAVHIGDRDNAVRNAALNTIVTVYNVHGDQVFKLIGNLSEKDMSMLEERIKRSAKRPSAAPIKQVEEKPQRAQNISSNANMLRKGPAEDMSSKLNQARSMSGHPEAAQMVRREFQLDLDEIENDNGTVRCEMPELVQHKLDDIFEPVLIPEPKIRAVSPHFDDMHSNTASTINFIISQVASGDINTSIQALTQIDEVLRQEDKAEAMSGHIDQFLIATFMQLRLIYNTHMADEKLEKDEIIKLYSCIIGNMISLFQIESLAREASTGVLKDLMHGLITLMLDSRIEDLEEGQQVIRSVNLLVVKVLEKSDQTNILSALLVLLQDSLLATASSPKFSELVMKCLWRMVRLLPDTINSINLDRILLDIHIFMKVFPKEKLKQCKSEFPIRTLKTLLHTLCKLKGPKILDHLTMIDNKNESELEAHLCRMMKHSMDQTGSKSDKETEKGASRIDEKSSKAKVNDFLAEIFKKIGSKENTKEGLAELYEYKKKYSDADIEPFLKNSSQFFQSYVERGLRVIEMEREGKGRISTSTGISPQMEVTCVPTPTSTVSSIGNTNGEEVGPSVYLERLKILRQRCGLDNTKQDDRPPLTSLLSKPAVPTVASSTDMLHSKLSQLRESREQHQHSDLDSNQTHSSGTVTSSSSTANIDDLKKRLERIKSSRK
# UniProt O75153: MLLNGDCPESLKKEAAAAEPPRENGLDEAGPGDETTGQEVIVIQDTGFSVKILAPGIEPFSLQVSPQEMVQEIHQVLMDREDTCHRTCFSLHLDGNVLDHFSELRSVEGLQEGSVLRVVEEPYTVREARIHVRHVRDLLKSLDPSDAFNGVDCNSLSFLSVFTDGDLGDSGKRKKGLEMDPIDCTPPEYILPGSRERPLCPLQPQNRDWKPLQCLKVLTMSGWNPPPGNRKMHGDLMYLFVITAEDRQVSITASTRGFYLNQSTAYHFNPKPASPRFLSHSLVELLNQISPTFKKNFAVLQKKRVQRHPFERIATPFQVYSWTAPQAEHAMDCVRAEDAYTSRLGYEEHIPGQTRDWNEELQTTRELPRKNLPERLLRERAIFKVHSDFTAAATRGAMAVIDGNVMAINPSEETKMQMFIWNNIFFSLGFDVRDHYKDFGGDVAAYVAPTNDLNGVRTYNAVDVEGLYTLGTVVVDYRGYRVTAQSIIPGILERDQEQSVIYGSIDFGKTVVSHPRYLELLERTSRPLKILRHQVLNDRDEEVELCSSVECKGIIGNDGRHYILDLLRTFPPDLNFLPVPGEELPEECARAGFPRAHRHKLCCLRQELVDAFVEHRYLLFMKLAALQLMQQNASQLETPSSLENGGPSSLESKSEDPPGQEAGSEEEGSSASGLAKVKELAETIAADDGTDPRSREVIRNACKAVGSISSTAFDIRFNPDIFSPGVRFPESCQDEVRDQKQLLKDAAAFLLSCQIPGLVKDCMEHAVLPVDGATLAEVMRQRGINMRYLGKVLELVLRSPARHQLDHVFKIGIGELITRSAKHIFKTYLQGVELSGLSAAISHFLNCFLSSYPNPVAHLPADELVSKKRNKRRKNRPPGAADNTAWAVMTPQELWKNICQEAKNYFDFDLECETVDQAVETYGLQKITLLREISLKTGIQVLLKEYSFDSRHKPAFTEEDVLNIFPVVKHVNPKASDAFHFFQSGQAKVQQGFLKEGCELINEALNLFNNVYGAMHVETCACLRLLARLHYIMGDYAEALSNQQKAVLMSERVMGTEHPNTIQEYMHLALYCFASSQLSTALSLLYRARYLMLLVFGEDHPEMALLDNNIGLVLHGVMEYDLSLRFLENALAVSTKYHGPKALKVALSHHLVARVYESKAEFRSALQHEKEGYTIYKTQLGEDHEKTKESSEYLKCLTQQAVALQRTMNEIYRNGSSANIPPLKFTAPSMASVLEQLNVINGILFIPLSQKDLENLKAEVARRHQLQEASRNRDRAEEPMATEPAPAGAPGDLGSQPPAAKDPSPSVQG
# UniProt Q13111, whole entry, looked up: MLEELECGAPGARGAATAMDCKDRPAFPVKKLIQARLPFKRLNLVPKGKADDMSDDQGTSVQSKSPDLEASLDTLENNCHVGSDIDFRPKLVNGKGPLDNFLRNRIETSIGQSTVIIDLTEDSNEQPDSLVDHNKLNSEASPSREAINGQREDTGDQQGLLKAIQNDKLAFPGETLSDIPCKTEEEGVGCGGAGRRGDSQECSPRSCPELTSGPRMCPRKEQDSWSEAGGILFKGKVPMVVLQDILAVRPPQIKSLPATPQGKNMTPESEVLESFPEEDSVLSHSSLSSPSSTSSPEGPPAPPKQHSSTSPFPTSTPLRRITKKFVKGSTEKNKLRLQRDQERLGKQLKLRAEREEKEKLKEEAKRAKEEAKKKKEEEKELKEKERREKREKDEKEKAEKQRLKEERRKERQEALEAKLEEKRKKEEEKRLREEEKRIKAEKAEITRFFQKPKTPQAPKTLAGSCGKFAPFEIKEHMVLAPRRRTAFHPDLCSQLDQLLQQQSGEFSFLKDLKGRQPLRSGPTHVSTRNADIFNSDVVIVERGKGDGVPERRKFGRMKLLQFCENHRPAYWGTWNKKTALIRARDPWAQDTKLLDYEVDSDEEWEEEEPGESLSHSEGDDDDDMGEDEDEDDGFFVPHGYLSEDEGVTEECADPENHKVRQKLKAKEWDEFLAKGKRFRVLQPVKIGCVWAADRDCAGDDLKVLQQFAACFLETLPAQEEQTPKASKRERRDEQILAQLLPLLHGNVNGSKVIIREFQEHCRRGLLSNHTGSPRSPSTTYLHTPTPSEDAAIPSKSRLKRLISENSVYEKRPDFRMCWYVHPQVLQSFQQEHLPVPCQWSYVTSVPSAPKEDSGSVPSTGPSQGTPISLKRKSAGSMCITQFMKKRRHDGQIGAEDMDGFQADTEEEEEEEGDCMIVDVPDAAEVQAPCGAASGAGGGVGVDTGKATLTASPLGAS
# The other results are listed elsewhere or left out.
# Compound: Cc1cc(ccc1-c1ccccc1)C(=O)N1CCCN(CC1)C(=O)CCl [compound 10]
# Assay: probe-labelled cysteine peptide fold change vs DMSO (competition) (log2 fold change); higher = less target engagement (more negative = stronger competition)
# Conditions: THP-1, incubation time: 4 h
# 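Also: competitive profiling in live THP-1 cells: cysteine peptides tagged with an iodoacetamide desthiobiotin (IA-DTB) probe, intensity after compound treatment relative to DMSO-treated cells.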
Target,probe-labelled cysteine peptide fold change (10 µM),probe-labelled cysteine peptide fold change (50 µM)
CHD4_Q14839_1594_STAPETAIECTQAPAPASEDEK (UniProt Q14839),0.0259,-0.219
CHD1_O14646_1176_LGELVHNGCIK (UniProt O14646),-0.0528,0.00367
CHD4_Q14839_1018_CCNHPYLFPVAAMEAPK (UniProt Q14839),-0.145,-0.259
CIAO1_O76071_19_CWFLAWNPAGTLLASCGGDRR (UniProt O76071),-0.472,-0.0889
CKAP5_Q14008_1360_AECLEELGCLVESYGMNVCQPTPGK (UniProt Q14008),0.0457,0.344
CHM_P24386_102_TIQHVEVFCYASQDLHEDVEEAGALQK (UniProt P24386),-0.112,0.0483
CLUH_O75153_551_HQVLNDRDEEVELCSSVECK (UniProt O75153),-0.0412,-0.0308
CHAF1A_Q13111_878_SAGSMCITQFMK (UniProt Q13111),-0.385,-0.565
CLTCL1_P53675_736_YIQAACK (UniProt P53675),0.0678,-0.212
CIT_O14578_356_FEGLCCHPFFSK (UniProt O14578),0.00229,0.0304
CHD4_Q14839_1019_CCNHPYLFPVAAMEAPK (UniProt Q14839),0.0187,-0.293
CLCN3_P51790_783_QCLVTHNGR (UniProt P51790),0.151,0.274
CHML_P26374_390_FGNTPFLFPLYGQGEIPQGFCR (UniProt P26374),0.0289,0.362
CLASP1_Q7Z460_1423_AAEEAASTLASSIHPEQCIK (UniProt Q7Z460),0.0352,0.0833
